In paper PMC6799934 one finds binding data, which are given here for seven substances.

Protein sequences, listed by entry. Tags and fused reporters are not part of them. Lines headed by an entry give the natural chain unless they say otherwise; changes in a name come on top.
UniProt D9N195: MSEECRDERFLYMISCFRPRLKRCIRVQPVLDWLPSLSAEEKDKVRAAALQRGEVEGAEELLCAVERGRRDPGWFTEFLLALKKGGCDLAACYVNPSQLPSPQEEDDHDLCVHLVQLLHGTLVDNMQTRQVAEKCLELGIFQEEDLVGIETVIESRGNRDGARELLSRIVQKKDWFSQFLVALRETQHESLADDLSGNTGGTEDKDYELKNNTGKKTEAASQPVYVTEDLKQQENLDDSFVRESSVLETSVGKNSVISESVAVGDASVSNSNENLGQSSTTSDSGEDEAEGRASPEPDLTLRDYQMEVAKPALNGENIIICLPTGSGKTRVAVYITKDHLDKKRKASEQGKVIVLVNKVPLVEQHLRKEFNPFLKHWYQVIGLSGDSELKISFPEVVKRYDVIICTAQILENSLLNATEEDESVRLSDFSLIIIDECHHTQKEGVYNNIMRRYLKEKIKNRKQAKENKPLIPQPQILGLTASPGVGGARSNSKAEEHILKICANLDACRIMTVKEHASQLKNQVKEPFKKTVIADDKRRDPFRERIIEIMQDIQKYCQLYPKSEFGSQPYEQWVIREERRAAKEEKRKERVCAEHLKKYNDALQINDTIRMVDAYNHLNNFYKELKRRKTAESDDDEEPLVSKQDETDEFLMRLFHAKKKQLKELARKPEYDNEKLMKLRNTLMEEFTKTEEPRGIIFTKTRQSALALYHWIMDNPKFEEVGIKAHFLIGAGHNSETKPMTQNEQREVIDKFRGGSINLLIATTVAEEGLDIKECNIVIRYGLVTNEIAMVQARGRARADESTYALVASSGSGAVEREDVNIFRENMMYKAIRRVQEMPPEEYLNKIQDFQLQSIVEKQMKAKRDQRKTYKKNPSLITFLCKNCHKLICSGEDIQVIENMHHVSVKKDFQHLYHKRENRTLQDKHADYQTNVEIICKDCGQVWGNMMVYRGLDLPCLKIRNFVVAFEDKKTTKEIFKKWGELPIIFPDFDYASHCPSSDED

No constants are given. Whether binding was seen depends on the method and setting. Binding seen in cells or lysates may run through a third protein. Binding calls can cover weak binding; strength is not graded here. For some assays here: Tags and fused reporters may be left off the sequences shown.

In assay [1] the target is T1, STING-HA (chicken STING) (chicken) (UniProt E1C7U0).
T1 sequence: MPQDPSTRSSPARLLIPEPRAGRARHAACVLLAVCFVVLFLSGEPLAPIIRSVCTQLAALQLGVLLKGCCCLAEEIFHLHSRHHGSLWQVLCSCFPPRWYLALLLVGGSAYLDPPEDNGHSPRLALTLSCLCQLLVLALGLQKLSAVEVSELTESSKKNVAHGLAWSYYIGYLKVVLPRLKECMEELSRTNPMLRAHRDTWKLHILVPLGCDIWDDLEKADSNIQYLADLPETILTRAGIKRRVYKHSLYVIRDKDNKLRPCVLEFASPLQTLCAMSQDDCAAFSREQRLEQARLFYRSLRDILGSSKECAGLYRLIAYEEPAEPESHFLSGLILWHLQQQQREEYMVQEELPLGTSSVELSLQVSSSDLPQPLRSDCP
The assay is described as follows: co-IP; HEK293T cells cotransfected with tagged plasmids for 36 h; lysed in ice-cold Pierce IP buffer with protease inhibitors; antibodies at 4 °C overnight, Protein G Sepharose 6 h, six washes with PBS; immunoblot. In general terms: In western blotting, separated proteins are transferred to a membrane and probed.

Assay [2] addresses T2, STING-Flag (chicken STING), expressed in DF-1 (chicken) (UniProt E1C7U0).
T2 sequence: T1 sequence
The assay is described as follows: co-IP; DF-1 cells cotransfected with tagged plasmids for 36 h, with or without Meq; lysed in ice-cold Pierce IP buffer; antibodies at 4 °C overnight, Protein G Sepharose 6 h, six washes with PBS; immunoblot.

Assay [3] deals with T3, STING, endogenous in CEFs (chicken (endogenous in CEFs)) (UniProt E1C7U0).
T3 sequence: T1 sequence
Description: co-IP; endogenous proteins from CEFs left uninfected or infected with MDV (Fig 5D); CEFs mock infected or infected with MDV-WT or MDV-dMeq and then transfected with ISD for 12 h (Fig 6C); immunoprecipitation and immunoblot with the indicated antibodies.

The next assay addresses T4, GST-STING (chicken) (UniProt E1C7U0).
T4 sequence: T1 sequence
Description: pull-down; GST-STING or GST-IRF7 bound to glutathione agarose beads, incubated 4 h at 4 °C with lysates of HEK293T cells transiently expressing Meq-Flag; five washes with NP-40 lysis buffer; Coomassie staining and/or immunoblot; only the target purified.

With “C-terminal transactivation domain of Meq (aa 122-339) (Marek's disease virus (MDV), GA strain) (domain or fragment)”, in assay [1], the binding result is on record as “binds”.
As for IKKβ-HA (chicken IκB kinase β), the binding entry in assay [2] is listed as “binds”.
Turning to “MDA5-HA (chicken melanoma differentiation-associated gene 5) (from UniProt D9N195)”, the binding entry in assay [2] is on record as “binds”.
Turning to “Meq expressed in MDV-infected CEFs (Marek's disease virus (MDV), GA strain)”, the binding result in assay [3] was “binds”.
Regarding “Meq-Flag (MDV oncoprotein Meq, full length) (Marek's disease virus (MDV), GA strain)”, the binding entry (in assay [1]; with GST-STING (chicken)) was “binds” in each case.
In the case of “Meq-Myc (Marek's disease virus (MDV), GA strain)”, the binding result in assay [2] is on record as “binds”.
With TBK1 (chicken), expressed in DF-1, in assay [2], the binding entry was “binds”.
